{"source": "paper PMC12431657", "about": "“Discovery and mechanistic insights of dibenzoylmethane as a broad spectrum inhibitor of coronavirus” (PLOS Pathogens, 2025)", "system": "HCoV-OC43", "set-up": "species or system RD; HTS, protection from HCoV-OC43 induced cell death, luminescent cell viability (CellCounting-Lite 2.0), inhibition rate", "details": "24 h post infection, 1 h compound pre-incubation, 10 µM, inhibitor", "note": "Like-named read-outs stand apart in the source and are kept apart here. The campaign covered roughly 3,300 compounds. About 60 (2%) showed an effect of 50% or more. The list shows a part of the results."}
{"smiles": "O=C1c2ccccc2C(=O)c2ccccc21", "note": "[Anthraquinone]", "values": [{"measurement": "OC43 Inhibition rate", "result": -0.3, "unit": "%"}]}
{"smiles": "CO[C@@H]1[C@@H](O[C@@H]2O[C@H](C)[C@@H](O[C@H]3C[C@@](C)(O)[C@@H](O)[C@H](C)O3)[C@H](N(C)C)[C@H]2O)[C@@H](CC=O)C[C@@H](C)[C@@H](O[C@H]2CC[C@H](N(C)C)[C@@H](C)O2)/C=C/C=C/C[C@@H](C)OC(=O)C[C@H]1O", "note": "[Spiramycin I]", "values": [{"measurement": "OC43 Inhibition rate", "result": 0.5, "unit": "%"}]}
{"smiles": "O=C(O)/C=C(/CC(=O)O)C(=O)O", "note": "[(Z)-Aconitic acid]", "values": [{"measurement": "OC43 Inhibition rate", "result": 0, "unit": "%"}]}
{"smiles": "Nc1ncnc(N[C@@H]2O[C@H](CO)[C@@H](O)[C@H]2O)c1[N+](=O)[O-]", "note": "[Clitocine]", "values": [{"measurement": "OC43 Inhibition rate", "result": -0.9, "unit": "%"}]}
{"smiles": "Nc1ccc(O)c(C(=O)O)c1", "note": "[5-Aminosalicylic Acid]", "values": [{"measurement": "OC43 Inhibition rate", "result": 0.7, "unit": "%"}]}
{"smiles": "COc1cc([C@H]2OC[C@H]3[C@@H]2CO[C@H]3c2ccc(OC)c(OC)c2)ccc1O", "note": "[Phillygenin]", "values": [{"measurement": "OC43 Inhibition rate", "result": -1.3, "unit": "%"}]}
{"smiles": "CC(=O)O[C@H]1Cc2cc3c(cc2[C@H]2N(C)Cc4c(ccc5c4OCO5)[C@@]12C)OCO3", "note": "[Acetylcorynoline]", "values": [{"measurement": "OC43 Inhibition rate", "result": 0.8, "unit": "%"}]}
{"smiles": "COc1cc(-c2coc3cc(O[C@@H]4O[C@H](CO)[C@@H](O)[C@H](O)[C@H]4O)c(OC)c(O)c3c2=O)ccc1O", "note": "[Iristectorin B]", "values": [{"measurement": "OC43 Inhibition rate", "result": 3.2, "unit": "%"}]}
{"smiles": "COc1cc2c(cc1O)CC[C@@H]1[C@@H]2CC[C@]2(C)[C@@H](O)CC[C@@H]12", "note": "[2-Methoxyestradiol]", "values": [{"measurement": "OC43 Inhibition rate", "result": -0.6, "unit": "%"}]}
{"smiles": "CC1=CC(=O)CC(C)(C)C1=O", "note": "[Ketoisophorone]", "values": [{"measurement": "OC43 Inhibition rate", "result": 1.3, "unit": "%"}]}
{"smiles": "C[C@@H]1O[C@@H](Oc2c(-c3ccc(O)c(O)c3)oc3cc(O)cc(O)c3c2=O)[C@H](O)[C@H](O)[C@H]1O", "note": "[Quercitrin]", "values": [{"measurement": "OC43 Inhibition rate", "result": 11.3, "unit": "%"}]}
{"smiles": "C[C@@H]1O[C@@H](O[C@H]2[C@H](O[C@H]3CC[C@@]4(C)[C@@H](CC[C@]5(C)[C@@H]4CC=C4[C@@H]6CC(C)(C)CC[C@]6(C(=O)O[C@@H]6O[C@H](CO[C@@H]7O[C@H](CO)[C@@H](O)[C@H](O)[C@H]7O)[C@@H](O)[C@H](O)[C@H]6O)CC[C@]45C)[C@]3(C)CO)OC[C@H](O)[C@@H]2O)[C@H](O)[C@H](O[C@@H]2O[C@H](CO)[C@@H](O)[C@H](O)[C@H]2O)[C@H]1O", "note": "[Macranthoidin A]", "values": [{"measurement": "OC43 Inhibition rate", "result": -0.3, "unit": "%"}]}
{"smiles": "O=C1O[C@@H]2[C@@H](O)[C@H](O)[C@@H](CO)O[C@H]2c2c1cc(O)c(O)c2O", "note": "[Norbergenin]", "values": [{"measurement": "OC43 Inhibition rate", "result": -0.8, "unit": "%"}]}
{"smiles": "OC[C@H](O)C(O)[C@@H](O)CO", "note": "[L-Arabinitol]", "values": [{"measurement": "OC43 Inhibition rate", "result": -0.9, "unit": "%"}]}
{"smiles": "Cc1nc2ccccc2c(=O)[nH]1", "note": "[2-Methylquinazolin-4-ol]", "values": [{"measurement": "OC43 Inhibition rate", "result": -0.1, "unit": "%"}]}
{"smiles": "C[C@@H]1CC[C@@]2(NC1)O[C@H]1C[C@H]3[C@@H]4CC=C5C[C@@H](O[C@@H]6O[C@H](CO)[C@@H](O[C@@H]7O[C@@H](C)[C@H](O)[C@@H](O)[C@H]7O)[C@H](O)[C@H]6O[C@@H]6O[C@@H](C)[C@H](O)[C@@H](O)[C@H]6O)CC[C@]5(C)[C@H]4CC[C@]3(C)[C@H]1[C@@H]2C", "note": "[Solamargine]", "values": [{"measurement": "OC43 Inhibition rate", "result": -9.7, "unit": "%"}]}
{"smiles": "O=c1cc(-c2cc(O)c(O)c(O)c2)oc2cc(O)cc(O)c12", "note": "[Tricetin]", "values": [{"measurement": "OC43 Inhibition rate", "result": 4.4, "unit": "%"}]}
{"smiles": "CCC/C=C1\\OC(=O)C2=C1CC[C@H]1[C@H]3C=C4C(=O)O/C(=C\\CCC)[C@@]4(CC3)[C@@H]21", "note": "[Levistolide A]", "values": [{"measurement": "OC43 Inhibition rate", "result": 77.4, "unit": "%"}]}
{"smiles": "CC1(C)OC(=O)C=C[C@]2(C)[C@H]3CC[C@@]4(C)[C@H](c5ccoc5)OC(=O)[C@H]5O[C@]54[C@]3(C)C(=O)C[C@@H]12", "note": "[Obacunone]", "values": [{"measurement": "OC43 Inhibition rate", "result": 8.1, "unit": "%"}]}
{"smiles": "C=C(C)[C@@H]1CCC2=CC(=O)C[C@@H](C)[C@]2(C)C1", "note": "[Nootkatone]", "values": [{"measurement": "OC43 Inhibition rate", "result": 14.5, "unit": "%"}]}
{"smiles": "CC(=O)CO", "note": "[Hydroxyacetone]", "values": [{"measurement": "OC43 Inhibition rate", "result": -1, "unit": "%"}]}
{"smiles": "CN[C@@H](C)[C@H]1[C@H](O)C[C@@]2(C)[C@@H]3CC[C@H]4C(C)(C)[C@@H](NC)CC[C@@]45C[C@@]35CC[C@]12C", "note": "[Cyclovirobuxine D]", "values": [{"measurement": "OC43 Inhibition rate", "result": 109.3, "unit": "%"}]}
{"smiles": "O=C(O)c1cc(=O)c2cccc(O)c2[nH]1", "note": "[Xanthurenic acid]", "values": [{"measurement": "OC43 Inhibition rate", "result": -0.5, "unit": "%"}]}
{"smiles": "C[C@]12C=CC(=O)C=C1CC[C@@H]1[C@@H]2[C@@H](O)C[C@@]2(C)[C@H]1CC[C@]2(O)C(=O)CO", "note": "[Prednisolone]", "values": [{"measurement": "OC43 Inhibition rate", "result": -0.1, "unit": "%"}]}
{"smiles": "C/C=C(/C)C(=O)O[C@H]1[C@@H](OC(=O)CC(C)C)c2c(ccc3ccc(=O)oc23)OC1(C)C", "note": "[Praeruptorin E]", "values": [{"measurement": "OC43 Inhibition rate", "result": 0, "unit": "%"}]}
{"smiles": "COc1ccc(/C=C/C(=O)O)cc1OC", "note": "[(E)-3,4-Dimethoxycinnamic acid]", "values": [{"measurement": "OC43 Inhibition rate", "setting": "OC43 Inhibition rate, 24 h", "result": -0.7, "unit": "%"}]}
{"smiles": "COc1ccc([C@H]2OC[C@H]3[C@@H]2CO[C@@H]3c2ccc(OC)c(OC)c2)cc1OC", "note": "[Eudesmin]", "values": [{"measurement": "OC43 Inhibition rate", "setting": "OC43 Inhibition rate, 24 h", "result": 2.6, "unit": "%"}]}
{"smiles": "O=C1CC[C@H](C(=O)O)N1", "note": "[(R)-5-Oxopyrrolidine-2-carboxylic acid]", "values": [{"measurement": "OC43 Inhibition rate", "result": -0.2, "unit": "%"}]}
{"smiles": "O=Cc1ccc(O[C@@H]2O[C@H](CO)[C@@H](O)[C@@H](O)[C@H]2O)cc1", "note": "[Helicid]", "values": [{"measurement": "OC43 Inhibition rate", "result": 0.1, "unit": "%"}]}
{"smiles": "O=c1c(O[C@@H]2OC[C@@H](O)[C@H](O)[C@H]2O)c(-c2ccc(O)c(O)c2)oc2cc(O)cc(O)c12", "note": "[Reynoutrin]", "values": [{"measurement": "OC43 Inhibition rate", "result": 1.1, "unit": "%"}]}
{"smiles": "C[C@@H]1O[C@@H](O[C@H]2[C@H](O[C@H]3CC[C@@]4(C)[C@@H](CC[C@]5(C)[C@@H]4CC=C4[C@@H]6CC(C)(C)CC[C@]6(C(=O)O)CC[C@]45C)[C@]3(C)CO)OC[C@H](O)[C@@H]2O)[C@H](O)[C@H](O[C@@H]2O[C@H](CO)[C@@H](O[C@@H]3O[C@H](CO)[C@@H](O)[C@H](O)[C@H]3O)[C@H](O)[C@H]2O)[C@H]1O", "note": "[Macranthoside B]", "values": [{"measurement": "OC43 Inhibition rate", "result": -7.6, "unit": "%"}]}
{"smiles": "O=C(O)c1cccc(O)c1", "note": "[3-Hydroxybenzoic acid]", "values": [{"measurement": "OC43 Inhibition rate", "result": 2, "unit": "%"}]}
{"smiles": "COC(=O)C1=COC(O[C@@H]2O[C@H](CO)[C@@H](O)[C@H](O)[C@H]2O)/C(=C/C(=O)O)C1CC(=O)OCCc1ccc(O)cc1", "note": "(stereo partly shown) [Ligustrosidic acid]", "values": [{"measurement": "OC43 Inhibition rate", "result": 0.1, "unit": "%"}]}
{"smiles": "C[N+](C)(C)CCOP(=O)(O)OP(=O)([O-])OC[C@H]1O[C@@H](n2ccc(N)nc2=O)[C@H](O)[C@@H]1O", "note": "[Citicoline (sodium)]", "values": [{"measurement": "OC43 Inhibition rate", "setting": "OC43 Inhibition rate, 24 h", "result": 3.4, "unit": "%"}]}
